Results deposited as PubChem BioAssay AID1259425 (University of Nebraska Medical Center, 2018)
Screen: 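Seek colon cancer weak points whose silencing resembles KSR1 loss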 (primary screen). Cell system: HCT116 human colon cancer cells. Knock-down reagent: siRNA pool against human genes, 50 nM siRNA. Detection: 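After 50 nM siRNA pool, branched-DNA assay measures six marker transcripts per well, minus blank, normalised to the geometric mean of two housekeeping transcripts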. Direction: BNIP3L mRNA: higher = more BNIP3L transcript after knockdown.
The whole screen tested about 14,000 reagents; shown is a part drawn at random. Some reagents were tested in more than one well and are listed for each. Not all columns of the deposit are shown. The record does not give: the time to read-out.

Depletion of PALMD came out at: BNIP3L mRNA, set 1 = 0.074.
For FOXD2, the entry reads BNIP3L mRNA, set 1 = 0.147.
Against SLF1, the entry reads BNIP3L mRNA, set 1 = 0.11.
MAPK8IP1 showed BNIP3L mRNA, set 1 = 0.0732.
NPTN scored BNIP3L mRNA, set 1 = 0.0589.
NPRL2 scored BNIP3L mRNA, set 1 = 0.0991.
With knock-down of EIF2S2 the results were BNIP3L mRNA, set 1 = 0.113.
DHX37 scored BNIP3L mRNA, set 1 = 0.0725.
Knock-down of TCL1A came out at: BNIP3L mRNA, set 1 = 0.139.
Silencing of ARHGEF18 gave: BNIP3L mRNA, set 1 = 0.059.
ETV7 gave BNIP3L mRNA, set 1 = 0.0825.
TAS2R5 scored BNIP3L mRNA, set 1 = 0.0604.
After knock-down of KCNK16, the record shows BNIP3L mRNA, set 1 = 0.398.
Silencing of SYT16 resulted in: BNIP3L mRNA, set 1 = 0.171.
With knock-down of SPAG1 the results were BNIP3L mRNA, set 1 = 0.149.
Depletion of FCRLA came out at: BNIP3L mRNA, set 1 = 0.0893.
With knock-down of ZNF385A, the record shows BNIP3L mRNA, set 1 = 0.165.
Silencing of FBLIM1 came out at: BNIP3L mRNA, set 1 = 0.0698.
For C1orf116, the values are BNIP3L mRNA, set 1 = 0.249.
For C1orf116 the deposit lists BNIP3L mRNA, set 1 = 0.123.
For BPY2 the deposit lists BNIP3L mRNA, set 1 = 0.0944.
Against ACSL6, the entry reads BNIP3L mRNA, set 1 = 0.145.
For ACSL6, the entry reads BNIP3L mRNA, set 1 = 0.102.
For DMP1 the deposit lists BNIP3L mRNA, set 1 = 0.171.
Against FHOD1, the entry reads BNIP3L mRNA, set 1 = 0.0846.
SAP30L showed BNIP3L mRNA, set 1 = 0.131.
MYL4 showed BNIP3L mRNA, set 1 = 0.171.
MRPL32 scored BNIP3L mRNA, set 1 = 0.0635.

Not a retest: 2 of the entries above.
C1orf116: BNIP3L mRNA, set 1 = 0.249
C1orf116: BNIP3L mRNA, set 1 = 0.123
